This note sets out measurements from publication PMC11315909.

Sequences of proteins named here, by UniProt entry; tags and fusion partners are left off.
UniProt Q9WTU0: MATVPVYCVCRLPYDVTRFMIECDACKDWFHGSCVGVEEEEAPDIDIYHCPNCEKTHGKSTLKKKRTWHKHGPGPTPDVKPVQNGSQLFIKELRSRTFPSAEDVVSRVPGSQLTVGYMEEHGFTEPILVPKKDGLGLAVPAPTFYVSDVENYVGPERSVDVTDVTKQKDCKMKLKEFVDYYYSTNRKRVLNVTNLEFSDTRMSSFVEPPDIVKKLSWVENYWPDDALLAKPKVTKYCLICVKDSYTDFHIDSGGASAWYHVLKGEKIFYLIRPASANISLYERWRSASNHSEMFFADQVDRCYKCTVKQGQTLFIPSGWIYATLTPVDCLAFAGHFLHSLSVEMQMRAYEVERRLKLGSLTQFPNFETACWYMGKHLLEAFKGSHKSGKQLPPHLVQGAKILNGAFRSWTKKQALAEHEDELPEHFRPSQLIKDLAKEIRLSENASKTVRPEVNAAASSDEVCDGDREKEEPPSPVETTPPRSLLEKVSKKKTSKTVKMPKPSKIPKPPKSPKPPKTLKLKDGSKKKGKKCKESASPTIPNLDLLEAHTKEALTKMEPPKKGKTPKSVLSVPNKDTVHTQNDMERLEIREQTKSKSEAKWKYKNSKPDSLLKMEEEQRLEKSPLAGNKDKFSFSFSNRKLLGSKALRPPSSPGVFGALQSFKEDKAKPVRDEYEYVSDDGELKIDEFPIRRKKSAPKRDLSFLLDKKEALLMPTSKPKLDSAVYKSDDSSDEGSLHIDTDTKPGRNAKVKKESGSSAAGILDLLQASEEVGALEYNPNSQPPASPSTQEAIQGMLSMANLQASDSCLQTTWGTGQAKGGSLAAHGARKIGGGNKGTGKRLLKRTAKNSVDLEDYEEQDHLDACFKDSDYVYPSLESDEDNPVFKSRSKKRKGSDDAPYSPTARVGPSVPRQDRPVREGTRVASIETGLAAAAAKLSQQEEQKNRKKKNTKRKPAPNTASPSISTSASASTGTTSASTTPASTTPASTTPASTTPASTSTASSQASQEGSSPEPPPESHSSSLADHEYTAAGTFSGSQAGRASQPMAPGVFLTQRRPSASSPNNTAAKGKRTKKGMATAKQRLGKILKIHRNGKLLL
UniProt Q08943: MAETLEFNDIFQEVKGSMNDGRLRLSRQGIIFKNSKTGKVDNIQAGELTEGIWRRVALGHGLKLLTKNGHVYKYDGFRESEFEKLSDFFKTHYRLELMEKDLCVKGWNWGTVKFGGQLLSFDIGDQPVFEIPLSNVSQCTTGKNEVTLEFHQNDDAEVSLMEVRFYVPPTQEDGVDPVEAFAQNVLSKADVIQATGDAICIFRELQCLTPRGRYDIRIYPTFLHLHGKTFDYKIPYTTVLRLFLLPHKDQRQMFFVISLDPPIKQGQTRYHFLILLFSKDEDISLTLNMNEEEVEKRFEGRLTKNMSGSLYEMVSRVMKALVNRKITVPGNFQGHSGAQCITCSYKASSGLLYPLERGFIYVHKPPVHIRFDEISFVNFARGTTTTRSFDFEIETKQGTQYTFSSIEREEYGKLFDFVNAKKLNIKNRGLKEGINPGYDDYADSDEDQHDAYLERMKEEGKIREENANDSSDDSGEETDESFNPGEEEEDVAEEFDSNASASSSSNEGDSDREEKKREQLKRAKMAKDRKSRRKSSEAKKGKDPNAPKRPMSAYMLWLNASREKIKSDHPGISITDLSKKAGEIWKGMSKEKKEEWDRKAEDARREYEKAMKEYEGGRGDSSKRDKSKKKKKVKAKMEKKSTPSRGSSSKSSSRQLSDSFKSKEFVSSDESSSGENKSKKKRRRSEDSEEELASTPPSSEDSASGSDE

This experiment concerns the target PHF2 (mouse (endogenous in NSCs)) (UniProt Q9WTU0). Put plainly: affinity purification with mass spectrometry; endogenous PHF2 immunoprecipitated with anti-PHF2 antibody from shCT and shPHF2 mouse NSC extracts (IPH buffer: 50 mM Tris-HCl pH 7.5, 150 mM NaCl, 5 mM EDTA, 0.5% NP-40), IgGs as control; immunopellets analysed by LC-MS/MS.

Results are given in words; binding and its absence hold for the method and conditions named. In cells and extracts the contact can be indirect. A yes stands for co-enrichment or nearness to the bait. Other partners may have been found.

RL14 (from UniProt Q9CR57 1-217): the binding entry was “binds”. Regarding RL29 (from UniProt P47915 1-160), the binding entry is “binds”.

For the molecule SSRP1 (from UniProt Q08943 1-708), the binding result is “binds”.

B1: heterochromatin protein 1 binding protein 3 (HP1BP3) (protein, UniProt Q3TEA8 1-554)
chain: MATDMSQGELIHPKALPLIVGAQLIHADKLGEKAEDTTMPIRRAVNSTRETPPKSKLAEGEEEKPEPDGSSEESISTVEEQENETPPATSSEAEQPKGEPESGEKEENNNKSAEEPKKDEKDQSKEKEKKVKKTIPAWATLSASQLARAQRQTPMASSPRPKMDAILTEAIKACFQKTGASVVAIRKYIIHKYPSLGLERRGYLLKQALKRELNRGVIRQVKGKGASGSFVVVQKSKPPQKSKNRKKGSALDPEPQVKLEDVLPLAFTRLCEPKEASYSLIRKYVSQYYPKLRVDIRPQLLKNALQRAVERGQLEQITGKGASGTFQLKKSGEKPLLGGSLMEYAILSAIAAMNEPKTCSTTALKKYVLENHPGANSNYQMHLLKKTLQKCEKNGWLEQISGKGFSGTFQLSFPYYPSPGVLFPKKESGGSDDEDEDDDDDESSEDSEDEEPPPKRSLQKKTPAKSQGKTASMKQRGSKPARKVPAAQRGKVRPLPKKAPPKAKTPARKARPSPSVIKKPSGSSSRKPIASARKEAKLPGKGKSAMKKSFKTKK
For B1, the binding result is “binds”.
